PubChem BioAssay AID1159578 – Peter MacCallum Cancer Centre, 2015
Aim: 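Knock-downs that alter how fast lymphatic endothelial cells migrate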 (primary screen). System: human lymphatic endothelial cells. Knock-down reagent: siRNA pool against human genes, 40 nM. Timing: 48 h after transfection. Detection: 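High-content imaging of dye-stained cells in a scratch assay measures filled wound area and nuclei per well; duplicate means given as ratio to mock and robust z-score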. Reading the numbers: migration robust z-score: higher = faster migration into the scratch; migration relative to mock: higher = more scratch area covered than mock; nuclei per well: higher = more cells in the well. Call rule: 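Pools averaging fewer than 3300 nuclei are never called; remaining pools count as changed when migration robust z lies outside -2 to 2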. Calls: active = migration changed; inactive = no migration change, or too few cells.
The deposit covers about 18,000 reagents; below is an unselected part. About 1,030 of all reagents (5.7%) were called active. 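Inactive calls also include pools with fewer than 3300 nuclei, whose migration was not assessed.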 Raw values vary from plate to plate and are shown uncorrected. A number with no mark means an inactive call.

| gene knocked down | PubChem SID | migration robust z-score | migration class with cell-count check | migration relative to mock | nuclei per well, duplicate mean |
| --- | --- | --- | --- | --- | --- |
| KIF14 (GeneID 9928) | SID255354674 | -1.17 | migration z between -2 and 2; enough cells | 0.58 | 4656 |
| IMPA2 (GeneID 3613) | SID255350491 | 1.33 | migration z between -2 and 2; enough cells | 1.06 | 3972 |
| COL9A3 (GeneID 1299) | SID255349021 | 0.18 | migration z between -2 and 2; enough cells | 0.94 | 4668 |
| ZNF407 (GeneID 55628) | SID255358733 | -0.5 | migration z between -2 and 2; enough cells | 0.76 | 4552 |
| PLA2G4C (GeneID 8605) | SID255353673 | -0.83 | migration z between -2 and 2; enough cells | 0.64 | 5422 |
| COL4A6 (GeneID 1288) | SID255349010 | 1.1 | migration z between -2 and 2; enough cells | 1.17 | 6592 |
| SCNN1D (GeneID 6339) | SID255352313 | -0.44 | migration z between -2 and 2; enough cells | 0.72 | 6552 |
| SLC8B1 (GeneID 80024) | SID255360633 | -0.82 | migration z between -2 and 2; enough cells | 0.66 | 5420 |
| RAP1GDS1 (GeneID 5910) | SID255352042 | -0.54 | migration z between -2 and 2; enough cells | 0.74 | 4910 |
| DBT (GeneID 1629) | SID255349249 | 0.24 | migration z between -2 and 2; enough cells | 0.85 | 5194 |
| PDHX (GeneID 8050) | SID255353377 | -0.2 | migration z between -2 and 2; enough cells | 0.76 | 5614 |
| CEP76 (GeneID 79959) | SID255360594 | 1.49 | migration z between -2 and 2; enough cells | 1.27 | 5614 |
| PHLDB2 (GeneID 90102) | SID255361783 | 1.2 | migration z between -2 and 2; enough cells | 1.19 | 8146 |
| DOK3 (GeneID 79930) | SID255360574 | -1.12 | migration z between -2 and 2; enough cells | 0.6 | 6510 |
| KLF16 (GeneID 83855) | SID255361101 | -0.65 | under 3300 nuclei; migration not judged | 0.68 | 3274 |
| ALG2 (GeneID 85365) | SID255361673 | 0.36 | migration z between -2 and 2; enough cells | 0.88 | 3712 |
| FCHO1 (GeneID 23149) | SID255356024 | 0.82 | migration z between -2 and 2; enough cells | 1.09 | 5448 |
| SLC16A12 (GeneID 387700) | SID255365450 | -0.1 | migration z between -2 and 2; enough cells | 0.78 | 5353 |
| BOP1 (GeneID 23246) | SID255356102 | 0.16 | migration z between -2 and 2; enough cells | 0.92 | 5830 |
| GIT2 (GeneID 9815) | SID255354578 | 0.71 | migration z between -2 and 2; enough cells | 1.07 | 6014 |
| LBH (GeneID 81606) | SID255360913 | 0.38 | migration z between -2 and 2; enough cells | 0.98 | 5138 |
| JMJD8 (GeneID 339123) | SID255365016 | -0.3 | migration z between -2 and 2; enough cells | 0.8 | 3370 |
| YPEL3 (GeneID 83719) | SID255361074 | 1.03 | migration z between -2 and 2; enough cells | 1.16 | 6836 |
| COA7 (GeneID 65260) | SID255360107 | 1.78 | migration z between -2 and 2; enough cells | 1.34 | 6230 |
| DLG2 (GeneID 1740) | SID255349311 | 0.49 | migration z between -2 and 2; enough cells | 0.9 | 5490 |
| TNFRSF10B (GeneID 8795) | SID255353817 | 0.2 | migration z between -2 and 2; enough cells | 0.94 | 6686 |
| NPPB (GeneID 4879) | SID255351288 | 0.31 | migration z between -2 and 2; enough cells | 0.86 | 5696 |
| L3MBTL3 (GeneID 84456) | SID255361374 | 0.27 | migration z between -2 and 2; enough cells | 0.96 | 3834 |
| FAM219A (GeneID 203259) | SID255364123 | 0.08 | migration z between -2 and 2; enough cells | 0.9 | 5284 |
| TEX13B (GeneID 56156) | SID255359036 | 0.96 | migration z between -2 and 2; enough cells | 1.14 | 5989 |
| CDC25A (GeneID 993) | SID255348815 | 1.06 | migration z between -2 and 2; enough cells | 1.01 | 5012 |
| PFKFB1 (GeneID 5207) | SID255351523 | -1.15 | migration z between -2 and 2; enough cells | 0.58 | 6016 |
| PRM1 (GeneID 5619) | SID255351834 | -0.31 | migration z between -2 and 2; enough cells | 0.8 | 4848 |
| FAM209B (GeneID 388799) | SID255365523 | -2.36 (active) | migration z below -2; enough cells | 0.26 | 4464 |
| IL24 (GeneID 11009) | SID255355518 | 1.88 | migration z between -2 and 2; enough cells | 1.38 | 6640 |
| TBC1D9 (GeneID 23158) | SID255356030 | -0.26 | migration z between -2 and 2; enough cells | 0.82 | 5616 |
| COQ9 (GeneID 57017) | SID255359231 | 1.11 | migration z between -2 and 2; enough cells | 1.17 | 5527 |
| CELSR2 (GeneID 1952) | SID255349451 | -0.68 | migration z between -2 and 2; enough cells | 0.68 | 5302 |
| TPCN1 (GeneID 53373) | SID255357924 | -1.4 | migration z between -2 and 2; enough cells | 0.54 | 4428 |
